{"source": "PubChem BioAssay AID504834", "about": "(National Center for Advancing Translational Sciences (NCATS), 2011)", "note": "Out of some 320,000 compounds screened, about 22,000 (6.9%) were called active. The shares of active, inactive and inconclusive entries below differ from those in the screen. Calls come from the whole dose curve; as a rule, active = well fitted inhibition curve with a large enough effect; inconclusive = small, poorly fitted or top-dose-only effect, or another doubt; inactive = no such curve, though single readings can be large or run the other way. Where the call is inconclusive, the potency comes from a doubtful curve fit. Potency is the fitted concentration of half-maximal effect."}
{"experiment": "Primary qHTS for delayed death inhibitors of the malarial parasite plastid, 96 hour incubation", "details": "P. falciparum luciferase reporter growth; series mostly up to 28.7 µM", "procedure,_shortened": "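P. falciparum expressing integrated firefly luciferase, in erythrocytes at 2% hematocrit, 0.05% parasitemia, incubated with compounds 96 h at 37 C, 5% CO2. Growth inhibition read as loss of luminescence; two-generation exposure targets delayed-death apicoplast inhibitors.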"}
{"smiles": "COc1ccc([N+](=O)[O-])cc1NS(=O)(=O)c1cccc(C(=O)O)c1", "Potency": "inactive"}
{"smiles": "CCN(CC(=O)NCc1ccc(Cl)cc1)Cc1cc(=O)n2ccsc2n1", "Potency": "inconclusive: 13.1 µM [inhibitor, single point]"}
{"smiles": "Cc1cccc(C(=O)NC2C(=O)NNC2c2ccc(Cl)cc2)c1", "note": "(stereo unspecified)", "Potency": "inconclusive: 18.5 µM [inhibitor, single point]"}
{"smiles": "C=CCn1c(SCC(=O)N2CCN(c3ccc(F)cc3)CC2)nnc1-c1ccco1", "Potency": "inconclusive: 13.1 µM [inhibitor, single point]"}
{"smiles": "COc1ccc(/C=C(\\C#N)C(=O)NCCc2ccccc2)cc1OCc1ccccc1", "Potency": "inconclusive: 11.7 µM [inhibitor, single point]"}
{"smiles": "O=c1cc(-c2ccccc2)cc(-c2ccccc2)n1CCCO", "Potency": "inconclusive: 14.7 µM [inhibitor, partial curve, poor fit]"}
{"smiles": "CCC(Sc1nc(C)cc(=O)[nH]1)C(=O)Nc1sc2c(c1C#N)CCCC2", "note": "(stereo unspecified)", "Potency": "inconclusive: 18.5 µM [inhibitor, single point]"}
{"smiles": "C/C(=N\\NC(=O)C1COc2ccccc2O1)c1ccc(Cl)s1", "note": "(stereo unspecified)", "Potency": "inconclusive: 5.22 µM [inhibitor, partial curve, poor fit]"}
{"smiles": "CCCNC(=O)c1onc(CSc2nc3ccccc3[nH]2)c1C(=O)NCCC", "Potency": "inconclusive: 11.7 µM [inhibitor, single point]"}
{"smiles": "O=C(c1cccc2ccccc12)C1CCCN(C(=O)CCN2CCCO2)C1", "note": "(stereo unspecified)", "Potency": "inconclusive: 0.522 µM [inhibitor, full curve]"}
{"smiles": "CN(C)CCN(Cc1ccc(Cl)cc1)c1ccccn1", "Potency": "inconclusive: 10.4 µM [inhibitor, single point]"}
{"smiles": "CCN(CC)c1ccc(N2C(=O)c3ccccc3C2=O)cc1", "Potency": "inconclusive: 18.5 µM [inhibitor, single point]"}
{"smiles": "O=c1c2ccccc2c(C=Nc2cccc(S(=O)(=O)NCc3ccco3)c2)c(O)n1-c1ccc(Cl)cn1", "Potency": "inconclusive: 18.5 µM [inhibitor, single point]"}
{"smiles": "O=C(NCc1cccs1)c1cnc(Cl)c(Cl)c1", "Potency": "inactive"}
{"smiles": "O=C(CSc1nc2ccccc2[nH]1)N1CCN(S(=O)(=O)c2ccc(Cl)cc2)CC1", "Potency": "inconclusive: 11.7 µM [inhibitor, partial curve, poor fit]"}
{"smiles": "CCN(CC)CCCNC(=O)c1cc2nc(-c3ccccc3)cc(C(F)(F)F)n2n1", "Potency": "inconclusive: 0.131 µM [inhibitor, full curve]"}
{"smiles": "COc1cccc(Cn2cnc3c(NS(=O)(=O)c4ccc(Cl)cc4)c(C)c(C)cc32)c1", "Potency": "active: 4.65 µM"}
{"smiles": "CNC(=O)c1ccccc1S(=O)c1ccccc1COC(C)=O", "note": "(stereo unspecified)", "Potency": "inconclusive: 14.7 µM [inhibitor, single point]"}
{"smiles": "CCOCCCNC(=O)C1CCC(CNS(=O)(=O)c2ccc(OC)cc2)CC1", "note": "(stereo unspecified)", "Potency": "inconclusive: 1.47 µM [inhibitor, full curve, poor fit]"}
{"smiles": "CCOc1ccccc1C(=O)Nc1nnc(SCC(=O)N2CCOCC2)s1", "Potency": "inactive"}
{"smiles": "CC(C)Nc1ncnc2ccc(Br)cc12", "Potency": "inactive"}
{"smiles": "COc1ccc(Cl)cc1S(=O)(=O)Oc1ccc(NC(C)=O)cc1", "Potency": "inconclusive: 14.7 µM [inhibitor, partial curve, poor fit]"}
{"smiles": "N#CC1=C(N)SC(N)=C(C#N)C1CCc1ccccc1", "Potency": "inconclusive: 11.7 µM [inhibitor, single point]"}
{"smiles": "Cc1c(C(C)NC(=O)c2ccc3nc(Cc4ccccc4F)oc3c2)cnn1C", "note": "(stereo unspecified)", "Potency": "inconclusive: 18.5 µM [inhibitor, single point]"}
{"smiles": "COc1cc(C(=O)Nc2sc3c(c2C(=O)NCc2ccco2)CCCC3)cc(OC)c1OC", "Potency": "active: 1.65 µM"}
{"smiles": "COc1ccc(CCN2CC(C(=O)Nc3nnc(Cc4ccccc4)s3)CC2=O)cc1OC", "note": "(stereo unspecified)", "Potency": "inconclusive: 18.5 µM [inhibitor, single point]"}
{"smiles": "O=C(COC(=O)c1ccc(O)cc1)Nc1cccc(S(=O)(=O)NC2=NCCCCC2)c1", "Potency": "inconclusive: 10.4 µM [inhibitor, partial curve, poor fit]"}
{"smiles": "CCCCCCCCCOC(=O)C[n+]1csc(CCO)c1C", "Potency": "inconclusive: 0.0329 µM [inhibitor, full curve, poor fit]"}
{"smiles": "c1ccc2c(c1)CCCN2c1nc2ccccc2n2cnnc12", "Potency": "inactive"}
{"smiles": "Cc1oc(-c2ccc(Cl)cc2)nc1CS(=O)CC(=O)NCc1ccc2c(c1)OCO2", "note": "(stereo unspecified)", "Potency": "inconclusive: 14.7 µM [inhibitor, single point]"}
{"smiles": "Cc1ccc(-c2cc(C(=O)N(C)Cc3cnn(C)c3C)c3cc(Br)ccc3n2)cc1", "Potency": "inconclusive: 10.4 µM [inhibitor, single point]"}
{"smiles": "c1ccc(-c2nc(NCCCn3ccnc3)c3ccccc3n2)cc1", "Potency": "active: 8.28 µM"}
{"smiles": "Cc1ccc2cccc(NC(=S)NC(=O)c3c(Br)cnn3C)c2n1", "Potency": "inconclusive: 18.5 µM [inhibitor, single point]"}
{"smiles": "COc1ccc(O[C@H]2C=C[C@@H](c3ccccc3)O[C@@H]2CO/N=C(\\C)CCN2CCCCc3nc(C)c(C)cc32)cc1", "Potency": "inconclusive: 4.15 µM [inhibitor, full curve, poor fit]"}
{"smiles": "COc1cc(OC)cc(C(=O)N2CCN(Cc3ccc4c(c3)OCO4)CC2)c1", "Potency": "inactive"}
{"smiles": "COc1ccc2c(C)c(CCC(=O)NC3CC3)c(=O)oc2c1C", "Potency": "active: 4.15 µM"}
{"smiles": "CCOCCCn1c(=NC(C)=O)c(C#N)cc2c(=O)n3cccc(C)c3nc21", "Potency": "inconclusive: 10.4 µM [inhibitor, partial curve, poor fit]"}
{"smiles": "Cc1cc(C)cc(NC(=O)CCNS(=O)(=O)c2ccc3c(c2)oc(=O)n3C)c1", "Potency": "inconclusive: 18.5 µM [inhibitor, single point]"}
{"smiles": "COc1ccc(S(=O)(=O)N2CCCCCC2)cc1C(=O)N(C)Cc1ccc(Cl)cc1Cl", "Potency": "inconclusive: 10.4 µM [inhibitor, single point]"}
{"smiles": "COc1ccc(C(=O)NC(C)c2ccncc2)cc1S(=O)(=O)N(C)Cc1ccccc1", "note": "(stereo unspecified)", "Potency": "inconclusive: 20.8 µM [inhibitor, partial curve, poor fit]"}
{"smiles": "COc1ccc(-c2coc3cc(O)ccc3c2=O)cc1OC", "Potency": "inconclusive: 0.0083 µM [inhibitor, full curve, poor fit]"}
